{"source": "ChEMBL document CHEMBL3393048", "about": "“Discovery of potent cytotoxic ortho-aryl chalcones as new scaffold targeting tubulin and mitosis with affinity-based fluorescence” (J Med Chem, 2014)", "key": {"[1]": {"test": "Antiproliferative activity against human CNE2 cells after 48 hrs by SRB method", "type": "functional, cell-based", "settings": "CNE-2, 48 h", "method_in_brief": "(§1)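 SRB assay. Cells in DMEM high glucose with 10% FBS were seeded at 5000/well and grown 24 h; a day-0 plate was fixed at that point. Compounds were added in triplicate for 48 h. IC50 came from nonlinear regression of dose–response curves from at least two independent experiments.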"}, "SW480": {"system": "SW480", "test": "Antiproliferative activity against human SW480 cells after 48 hrs by SRB method", "type": "functional, cell-based", "settings": "SW480, 48 h", "method_in_brief": "as §1, with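 “h. Cells were fixed with TCA at 4 °C for 1 h, stained with 0.4% SRB, and the dye was solubilized in 10 mM Tris pH 10.4. OD was read at 515 nm with day-0 OD subtracted.” for “h.”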"}}, "data": [{"smiles": "COc1cc2c(c(OC)c1OC)-c1ccc(OC)c(=O)cc1[C@@H](NC(C)=O)CC2", "note": "[COLCHICINE]", "values": [{"measurement": "IC50", "setting": "[1]", "value": 34, "unit": "nM"}, {"measurement": "IC50", "setting": "SW480", "value": 33, "unit": "nM"}]}]}
